The values below come from PMC11338077.

By UniProt entry, the sequences of proteins in these tests, tags left out.
UniProt P08047: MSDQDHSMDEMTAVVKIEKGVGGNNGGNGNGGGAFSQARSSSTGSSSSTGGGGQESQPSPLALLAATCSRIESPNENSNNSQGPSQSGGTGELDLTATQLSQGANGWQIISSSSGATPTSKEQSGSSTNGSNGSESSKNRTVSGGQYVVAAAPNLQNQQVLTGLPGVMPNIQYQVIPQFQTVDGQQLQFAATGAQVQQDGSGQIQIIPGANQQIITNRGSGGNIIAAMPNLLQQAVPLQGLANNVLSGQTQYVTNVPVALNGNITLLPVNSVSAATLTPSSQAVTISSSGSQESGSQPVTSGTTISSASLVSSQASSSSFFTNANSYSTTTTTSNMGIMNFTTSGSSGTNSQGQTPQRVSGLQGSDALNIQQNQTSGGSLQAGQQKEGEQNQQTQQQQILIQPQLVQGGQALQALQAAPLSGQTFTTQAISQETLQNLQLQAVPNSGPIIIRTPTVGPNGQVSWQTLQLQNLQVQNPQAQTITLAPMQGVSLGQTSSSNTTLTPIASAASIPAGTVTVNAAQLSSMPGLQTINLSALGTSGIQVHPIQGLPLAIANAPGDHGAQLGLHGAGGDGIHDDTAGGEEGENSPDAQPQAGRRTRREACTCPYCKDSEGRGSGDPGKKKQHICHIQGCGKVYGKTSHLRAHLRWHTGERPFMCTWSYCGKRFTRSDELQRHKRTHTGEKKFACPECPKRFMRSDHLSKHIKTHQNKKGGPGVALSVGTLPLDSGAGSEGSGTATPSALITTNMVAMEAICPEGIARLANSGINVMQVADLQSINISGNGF
UniProt Q16666: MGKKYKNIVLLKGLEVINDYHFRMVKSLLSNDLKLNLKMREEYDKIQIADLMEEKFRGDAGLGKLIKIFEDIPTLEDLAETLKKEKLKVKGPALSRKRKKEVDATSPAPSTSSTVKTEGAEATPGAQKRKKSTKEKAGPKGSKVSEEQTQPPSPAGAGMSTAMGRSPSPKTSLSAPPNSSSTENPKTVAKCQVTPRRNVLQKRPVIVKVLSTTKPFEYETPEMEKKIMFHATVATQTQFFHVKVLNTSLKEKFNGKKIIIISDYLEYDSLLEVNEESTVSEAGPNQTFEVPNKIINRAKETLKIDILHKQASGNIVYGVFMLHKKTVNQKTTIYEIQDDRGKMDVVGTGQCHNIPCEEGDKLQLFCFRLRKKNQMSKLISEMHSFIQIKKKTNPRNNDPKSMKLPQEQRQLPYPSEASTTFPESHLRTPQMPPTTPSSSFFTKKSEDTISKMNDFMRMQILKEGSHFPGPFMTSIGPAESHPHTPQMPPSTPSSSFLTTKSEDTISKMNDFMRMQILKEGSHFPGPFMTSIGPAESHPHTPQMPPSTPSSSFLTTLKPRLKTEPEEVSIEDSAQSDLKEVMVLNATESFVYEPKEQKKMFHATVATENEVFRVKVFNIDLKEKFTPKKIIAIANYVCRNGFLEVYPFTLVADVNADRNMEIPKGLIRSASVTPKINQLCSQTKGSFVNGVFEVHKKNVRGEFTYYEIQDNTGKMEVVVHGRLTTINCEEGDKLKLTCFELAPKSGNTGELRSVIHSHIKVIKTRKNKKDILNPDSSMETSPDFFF

The target in the test is transcription factor Sp1 (human (endogenous in U2OS)) (UniProt P08047). The experiment in a line: co-IP; U2OS wt and U2OS IFI16-/- cell lysates (SDS lysis buffer, diluted 1:10 in dilution buffer); precipitation with 1.5 µg anti-Sp1 antibody or rabbit IgG1 control overnight at 4°C, protein G agarose with salmon sperm DNA; washes with low salt, high salt (500 mM NaCl), LiCl buffers and TE; Western blot.

No constants are given. Whether binding was seen depends on the method and setting. In cells and extracts the contact can be indirect. Some binding calls cover weakened binding; strength is not graded here.

Take “interferon-γ inducible factor 16 (IFI16) (from UniProt Q16666 1-785)”: the binding result is “binds”.
